Reference: doi:10.1101/2023.12.06.570334
Results are given in words; binding and its absence hold for the method and conditions named. In cells and extracts the contact can be indirect. Some entries that bind do so weakly or less than the wild type. Sequences can lack the tags named with a protein.

T1: HA-PALMD (UniProt Q9JHU2)
T1 sequence: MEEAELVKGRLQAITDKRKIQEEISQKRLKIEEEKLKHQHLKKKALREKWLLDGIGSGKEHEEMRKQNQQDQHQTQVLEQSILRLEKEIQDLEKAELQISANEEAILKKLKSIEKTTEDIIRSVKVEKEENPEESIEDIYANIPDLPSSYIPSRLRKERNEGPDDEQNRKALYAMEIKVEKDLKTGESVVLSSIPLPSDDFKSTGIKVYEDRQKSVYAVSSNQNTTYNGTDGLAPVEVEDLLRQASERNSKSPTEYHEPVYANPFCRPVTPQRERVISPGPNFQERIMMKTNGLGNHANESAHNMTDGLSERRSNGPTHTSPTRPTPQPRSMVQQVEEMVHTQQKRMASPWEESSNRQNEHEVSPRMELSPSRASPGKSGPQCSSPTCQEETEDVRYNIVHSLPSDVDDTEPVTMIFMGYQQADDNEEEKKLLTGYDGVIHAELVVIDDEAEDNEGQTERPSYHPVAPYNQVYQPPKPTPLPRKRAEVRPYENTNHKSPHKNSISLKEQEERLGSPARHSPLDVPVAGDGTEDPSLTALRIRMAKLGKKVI

T2: FLAG-NEXN (mouse) (UniProt Q7TPW1)
T2 sequence: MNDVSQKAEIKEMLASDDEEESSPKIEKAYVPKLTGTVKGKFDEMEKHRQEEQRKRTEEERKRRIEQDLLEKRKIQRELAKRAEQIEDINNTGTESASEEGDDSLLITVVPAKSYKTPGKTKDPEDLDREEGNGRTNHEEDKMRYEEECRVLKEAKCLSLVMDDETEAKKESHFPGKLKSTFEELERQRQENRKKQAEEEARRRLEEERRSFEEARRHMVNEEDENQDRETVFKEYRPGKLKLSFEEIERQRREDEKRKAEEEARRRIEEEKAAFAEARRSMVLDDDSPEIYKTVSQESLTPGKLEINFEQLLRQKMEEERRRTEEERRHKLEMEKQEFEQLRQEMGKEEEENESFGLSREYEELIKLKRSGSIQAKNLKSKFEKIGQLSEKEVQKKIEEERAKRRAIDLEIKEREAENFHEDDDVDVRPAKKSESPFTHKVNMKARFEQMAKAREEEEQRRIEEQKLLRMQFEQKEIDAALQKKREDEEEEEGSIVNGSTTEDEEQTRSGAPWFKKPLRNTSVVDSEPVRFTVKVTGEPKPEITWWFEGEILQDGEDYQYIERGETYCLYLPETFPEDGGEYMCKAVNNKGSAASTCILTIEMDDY


Assays:
HA-PALMD = molecular target: T1, HA-PALMD; assay: co-IP
FLAG-NEXN (mouse) = molecular target: T2, FLAG-NEXN (mouse); assay: co-IP

binding (HA-PALMD)	binding (FLAG-NEXN (mouse))	Binder
binds		FLAG-NEXN (protein, UniProt Q7TPW1 1-607) MNDVSQKAEIKEMLASDDEEESSPKIEKAYVPKLTGTVKGKFDEMEKHRQEEQRKRTEEERKRRIEQDLLEKRKIQRELAKRAEQIEDINNTGTESASEEGDDSLLITVVPAKSYKTPGKTKDPEDLDREEGNGRTNHEEDKMRYEEECRVLKEAKCLSLVMDDETEAKKESHFPGKLKSTFEELERQRQENRKKQAEEEARRRLEEERRSFEEARRHMVNEEDENQDRETVFKEYRPGKLKLSFEEIERQRREDEKRKAEEEARRRIEEEKAAFAEARRSMVLDDDSPEIYKTVSQESLTPGKLEINFEQLLRQKMEEERRRTEEERRHKLEMEKQEFEQLRQEMGKEEEENESFGLSREYEELIKLKRSGSIQAKNLKSKFEKIGQLSEKEVQKKIEEERAKRRAIDLEIKEREAENFHEDDDVDVRPAKKSESPFTHKVNMKARFEQMAKAREEEEQRRIEEQKLLRMQFEQKEIDAALQKKREDEEEEEGSIVNGSTTEDEEQTRSGAPWFKKPLRNTSVVDSEPVRFTVKVTGEPKPEITWWFEGEILQDGEDYQYIERGETYCLYLPETFPEDGGEYMCKAVNNKGSAASTCILTIEMDDY
	binds	HA-PALMD (protein, UniProt Q9JHU2 1-551) MEEAELVKGRLQAITDKRKIQEEISQKRLKIEEEKLKHQHLKKKALREKWLLDGIGSGKEHEEMRKQNQQDQHQTQVLEQSILRLEKEIQDLEKAELQISANEEAILKKLKSIEKTTEDIIRSVKVEKEENPEESIEDIYANIPDLPSSYIPSRLRKERNEGPDDEQNRKALYAMEIKVEKDLKTGESVVLSSIPLPSDDFKSTGIKVYEDRQKSVYAVSSNQNTTYNGTDGLAPVEVEDLLRQASERNSKSPTEYHEPVYANPFCRPVTPQRERVISPGPNFQERIMMKTNGLGNHANESAHNMTDGLSERRSNGPTHTSPTRPTPQPRSMVQQVEEMVHTQQKRMASPWEESSNRQNEHEVSPRMELSPSRASPGKSGPQCSSPTCQEETEDVRYNIVHSLPSDVDDTEPVTMIFMGYQQADDNEEEKKLLTGYDGVIHAELVVIDDEAEDNEGQTERPSYHPVAPYNQVYQPPKPTPLPRKRAEVRPYENTNHKSPHKNSISLKEQEERLGSPARHSPLDVPVAGDGTEDPSLTALRIRMAKLGKKVI
